This is an account of results in article PMC7804203, “Targeting adaptor protein SLP76 of RAGE as a therapeutic approach for lethal sepsis” (Nature Communications, 2021).

The chains behind the UniProt entries cited, without tags or fusion partners. Where a name states a change or a piece, a line headed by the entry shows the natural chain unless it says otherwise.
UniProt Q15109: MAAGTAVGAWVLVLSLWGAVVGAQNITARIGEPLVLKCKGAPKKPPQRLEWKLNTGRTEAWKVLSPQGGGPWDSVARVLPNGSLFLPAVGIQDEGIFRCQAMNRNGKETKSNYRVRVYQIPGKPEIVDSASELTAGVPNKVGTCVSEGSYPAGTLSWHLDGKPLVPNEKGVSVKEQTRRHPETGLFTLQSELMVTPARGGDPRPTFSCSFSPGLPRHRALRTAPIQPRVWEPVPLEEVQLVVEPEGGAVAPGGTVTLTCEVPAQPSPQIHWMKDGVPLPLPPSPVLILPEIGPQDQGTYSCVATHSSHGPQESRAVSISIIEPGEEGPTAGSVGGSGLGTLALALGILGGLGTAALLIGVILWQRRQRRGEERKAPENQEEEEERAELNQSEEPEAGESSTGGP

One test deals with T1, His-tagged SLP76 (UniProt Q13094).
T1 sequence: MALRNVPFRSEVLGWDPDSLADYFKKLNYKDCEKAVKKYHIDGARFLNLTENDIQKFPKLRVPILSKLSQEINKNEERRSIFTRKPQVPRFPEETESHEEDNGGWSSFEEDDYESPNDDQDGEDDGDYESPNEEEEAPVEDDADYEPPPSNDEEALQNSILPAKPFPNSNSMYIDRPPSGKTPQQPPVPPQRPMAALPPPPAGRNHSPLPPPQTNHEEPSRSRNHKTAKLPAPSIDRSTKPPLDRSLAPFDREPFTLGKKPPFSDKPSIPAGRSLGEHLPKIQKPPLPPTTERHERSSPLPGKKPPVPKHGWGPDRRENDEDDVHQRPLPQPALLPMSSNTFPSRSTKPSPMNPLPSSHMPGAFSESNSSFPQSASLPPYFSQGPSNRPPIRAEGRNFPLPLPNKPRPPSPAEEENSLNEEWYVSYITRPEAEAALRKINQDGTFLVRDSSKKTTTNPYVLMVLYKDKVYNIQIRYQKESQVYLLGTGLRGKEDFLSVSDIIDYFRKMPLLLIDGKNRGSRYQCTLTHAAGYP
The test is described as follows: pull-down; His-SLP76 incubated with GST-RAGE(CT) or GST and pulled down with Ni2+-NTA beads; SDS-PAGE with Coomassie staining; both purified.

Test [1] deals with HA-tagged RAGE mutant with D-domain-like docking site (D) deletion (UniProt Q15109). The test is described as follows: co-IP; HEK293 cotransfected with HA-RAGE (or mutants) and Flag-SLP76 (or mutants); treated with AGEs at different doses and times (100 μg/ml, 15 min in the mapping) or untreated; 500 µg lysate with anti-HA affinity gel overnight at 4 °C; blot for Flag.

Results are given in words; binding and its absence hold for the method and conditions named. Binding calls can cover weak binding; strength is not graded here. Tags and fused reporters may be left off the sequences shown. For some assays here: Binding seen in cells or lysates may run through a third protein.

For the molecule “GST-tagged cytosolic tail of RAGE (domain or fragment)”, in the test with His-tagged SLP76, the binding result is “binds”.

B1: Flag-tagged full-length SLP76 (protein, UniProt Q13094 1-533)
chain: MALRNVPFRSEVLGWDPDSLADYFKKLNYKDCEKAVKKYHIDGARFLNLTENDIQKFPKLRVPILSKLSQEINKNEERRSIFTRKPQVPRFPEETESHEEDNGGWSSFEEDDYESPNDDQDGEDDGDYESPNEEEEAPVEDDADYEPPPSNDEEALQNSILPAKPFPNSNSMYIDRPPSGKTPQQPPVPPQRPMAALPPPPAGRNHSPLPPPQTNHEEPSRSRNHKTAKLPAPSIDRSTKPPLDRSLAPFDREPFTLGKKPPFSDKPSIPAGRSLGEHLPKIQKPPLPPTTERHERSSPLPGKKPPVPKHGWGPDRRENDEDDVHQRPLPQPALLPMSSNTFPSRSTKPSPMNPLPSSHMPGAFSESNSSFPQSASLPPYFSQGPSNRPPIRAEGRNFPLPLPNKPRPPSPAEEENSLNEEWYVSYITRPEAEAALRKINQDGTFLVRDSSKKTTTNPYVLMVLYKDKVYNIQIRYQKESQVYLLGTGLRGKEDFLSVSDIIDYFRKMPLLLIDGKNRGSRYQCTLTHAAGYP
With B1, the binding entry in test [1] was “binds”.
